From PubChem BioAssay AID256 (DTP/NCI, 2004)
The list is a part of this screen's results and no random one: it gathers tests that were run many times, whatever their T/C, doses with no T/C, and many T/C values between a quarter and a half above the control. Further doses and runs are listed elsewhere. T/C gives the treated animals as a percentage of the vehicle group. Some doses have a count of surviving animals in place of a T/C: the source files T/C as zero there, which appears to mark a toxic dose or a test without result, not a measured value. Some doses without a T/C left all or most animals alive at the check, yet need not have been tolerated: the source hardly ever lists a survival T/C far under the control, and the zero likely stands for such cases as well. Survivors were counted at the toxicity check, usually on the fifth day, unless a day is given; later deaths do not show. Schedules are NCI's codes, read here as Q, the interval in days (D) or hours (H), X, the number of doses. Where survival is the endpoint, the PubChem record calls one and a half times the control and up active, and a quarter to a half above the control has no call in these data; cut-offs in other NCI protocols can differ. Some T/C values carry the count of animals alive at the toxicity check (mostly the fifth day); without a count, all were alive then. Some entries hold several experiments; the values are given in rising order.

Test system: CD2F1 mice, L1210 leukemia ip, survival T/C
Test: NCI In Vivo Anticancer Drug Screen. Data for tumor model L1210 Leukemia (intraperitoneal) in CD2F1 (CDF1) mice
Conditions: T/C endpoint: mean survival time, higher T/C = longer survival
How it was run: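 Ratio T/C, where T is the treated-group value and C the vehicle-dosed control value, from mice implanted with a transplantable tumor.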

COc1cccc2c1C(=O)c1c(O)c3c(c(O)c1C2=O)C[C@@](O)(C(=O)CO)C[C@@H]3OC1CC(N)C(O)C(C)O1 (stereo partly drawn)
T/C (dose: 1.2 mg/kg/injection, schedule: Q01DX009 (ip), vehicle: saline): 130 % of control | T/C (dose: 1.25 mg/kg/injection, schedule: Q04DX003 (ip), vehicle: saline): 128 % of control | T/C (dose: 1.25 mg/kg/injection, schedule: Q04DX003 (ip), vehicle: water, evaluated on day 30): 128 % of control | T/C (dose: 1.25 mg/kg/injection, schedule: Q04DX003 (ip), vehicle: water, evaluated on day 60): 136 % of control | T/C (dose: 1.5 mg/kg/injection, schedule: Q01DX009 (ip), vehicle: saline): 130 [5 of 6 alive] and 139 % of control | T/C (dose: 1.56 mg/kg/injection, schedule: Q01DX009 (ip), vehicle: dextrose): 141 % of control | T/C (dose: 1.56 mg/kg/injection, schedule: Q01DX009 (ip), vehicle: water): 143 % of control | T/C (dose: 1.8 mg/kg/injection, schedule: Q01DX009 (ip), vehicle: saline): 143 % of control | T/C (dose: 1.94 mg/kg/injection, schedule: Q01DX001 (ip), vehicle: saline, evaluated on day 30): 132 % of control | T/C (dose: 1.94 mg/kg/injection, schedule: Q01DX001 (ip), vehicle: saline, evaluated on day 45): 130 % of control | T/C (dose: 2.0 mg/kg/injection, schedule: Q01DX005 (ip), vehicle: water): 137 % of control | T/C (dose: 2.0 mg/kg/injection, schedule: Q01DX009 (ip), vehicle: saline, evaluated on day 30): 120, 125, 127, 129, 140, 141, 142, 146, 162, 222, 250 % of control | T/C (dose: 2.0 mg/kg/injection, schedule: Q01DX009 (ip), vehicle: saline, evaluated on day 35): 120 % of control | T/C (dose: 2.0 mg/kg/injection, schedule: Q01DX009 (ip), vehicle: saline, evaluated on day 45): 208 and 311 % of control | T/C (dose: 2.0 mg/kg/injection, schedule: Q01DX009 (ip), vehicle: saline, evaluated on day 60): 131 and 400 % of control | T/C (dose: 2.0 mg/kg/injection, schedule: Q01DX009 (ip), vehicle: water, evaluated on day 5): 160 % of control | T/C (dose: 2.0 mg/kg/injection, schedule: Q01DX009 (ip), vehicle: water, evaluated on day 30): 135 and 177 % of control | T/C (dose: 2.0 mg/kg/injection, schedule: Q01DX009 (ip), vehicle: water, evaluated on day 35): 159 % of control | T/C (dose: 2.0 mg/kg/injection, schedule: Q01DX009 (ip), vehicle: water, evaluated on day 45): 108, 125, 135, 138, 140, 141, 147, 362 % of control | T/C (dose: 2.5 mg/kg/injection, schedule: Q01DX001 (ip), vehicle: saline, evaluated on day 5): 130 % of control | T/C (dose: 2.5 mg/kg/injection, schedule: Q01DX001 (ip), vehicle: saline, evaluated on day 45): 130 % of control | T/C (dose: 2.5 mg/kg/injection, schedule: Q01DX001 (ip), vehicle: saline, evaluated on day 60): 129 % of control | T/C (dose: 2.5 mg/kg/injection, schedule: Q01DX001 (ip), vehicle: water): 126 and 130 % of control | T/C (dose: 2.5 mg/kg/injection, schedule: Q04DX003 (ip), vehicle: saline): 142 % of control | T/C (dose: 2.5 mg/kg/injection, schedule: Q04DX003 (ip), vehicle: water): 137 % of control | T/C (dose: 3.0 mg/kg/injection, schedule: Q01DX009 (ip), vehicle: saline): 126 and 130 % of control | T/C (dose: 3.0 mg/kg/injection, schedule: Q04DX003 (ip), vehicle: saline): 143 % of control | T/C (dose: 3.13 mg/kg/injection, schedule: Q01DX009 (ip), vehicle: water): 125 % of control | T/C (dose: 3.24 mg/kg/injection, schedule: Q01DX001 (ip), vehicle: saline, evaluated on day 30): 128 % of control | T/C (dose: 3.24 mg/kg/injection, schedule: Q01DX001 (ip), vehicle: saline, evaluated on day 45): 125 % of control | T/C (dose: 3.33 mg/kg/injection, schedule: Q01DX009 (ip), vehicle: saline): 141 % of control | T/C (dose: 4.0 mg/kg/injection, schedule: Q01DX005 (ip), vehicle: water, evaluated on day 30): 147 % of control | T/C (dose: 4.0 mg/kg/injection, schedule: Q01DX005 (ip), vehicle: water, evaluated on day 45): 127 % of control | survivor count (dose: 4.0 mg/kg/injection, schedule: Q01DX005 (ip), vehicle: water): 6 of 6 | T/C (dose: 4.0 mg/kg/injection, schedule: Q01DX009 (ip), vehicle: saline, evaluated on day 30): 89, 93, 97, 104, 109, 111, 119, 122, 152 % of control | T/C (dose: 4.0 mg/kg/injection, schedule: Q01DX009 (ip), vehicle: saline, evaluated on day 35): 86 % of control | T/C (dose: 4.0 mg/kg/injection, schedule: Q01DX009 (ip), vehicle: saline, evaluated on day 45): 95 % of control | T/C (dose: 4.0 mg/kg/injection, schedule: Q01DX009 (ip), vehicle: saline, evaluated on day 60): 130 and 146 % of control | survivor count (dose: 4.0 mg/kg/injection, schedule: Q01DX009 (ip), vehicle: saline): 6 of 6 | T/C (dose: 4.0 mg/kg/injection, schedule: Q01DX009 (ip), vehicle: water, evaluated on day 5): 119 % of control | T/C (dose: 4.0 mg/kg/injection, schedule: Q01DX009 (ip), vehicle: water, evaluated on day 30): 86 and 140 % of control | T/C (dose: 4.0 mg/kg/injection, schedule: Q01DX009 (ip), vehicle: water, evaluated on day 35): 92 % of control | T/C (dose: 4.0 mg/kg/injection, schedule: Q01DX009 (ip), vehicle: water, evaluated on day 45): 86, 88, 95, 119, 176 % of control
